Reference: PubChem BioAssay AID2551 (National Center for Advancing Translational Sciences (NCATS), 2010)
About 17,000 (5.5%) of roughly 310,000 compounds were called active. The shares of active, inactive and inconclusive entries below differ from those in the screen. The call rests on the fitted dose curve; in most records, active means well fitted inhibition curve with a large enough effect; inconclusive means small, poorly fitted or top-dose-only effect, or effect the other way; inactive means no such curve, though single readings can be large or run the other way. Where the call is inconclusive, the potency comes from a doubtful curve fit.

Protein sequences, listed by entry. Tags and fused reporters are not part of them. Lines headed by an entry give the natural chain unless they say otherwise; changes in a name come on top.
UniProt P51450: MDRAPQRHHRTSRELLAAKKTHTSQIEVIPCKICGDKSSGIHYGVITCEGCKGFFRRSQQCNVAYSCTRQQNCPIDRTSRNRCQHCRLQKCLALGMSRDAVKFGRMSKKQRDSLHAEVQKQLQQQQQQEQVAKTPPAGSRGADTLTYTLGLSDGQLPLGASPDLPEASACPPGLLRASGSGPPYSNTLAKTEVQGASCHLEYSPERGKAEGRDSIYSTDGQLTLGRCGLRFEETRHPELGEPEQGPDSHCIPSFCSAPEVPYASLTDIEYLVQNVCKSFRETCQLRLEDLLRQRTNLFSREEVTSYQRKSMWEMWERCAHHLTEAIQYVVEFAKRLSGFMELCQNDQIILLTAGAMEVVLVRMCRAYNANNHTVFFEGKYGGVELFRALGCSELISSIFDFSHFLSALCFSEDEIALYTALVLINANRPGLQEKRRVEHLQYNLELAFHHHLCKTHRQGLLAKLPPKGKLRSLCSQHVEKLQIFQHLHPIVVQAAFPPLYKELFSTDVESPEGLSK

Each molecule was assayed against Nuclear receptor ROR-gamma (Mus musculus) (UniProt P51450) (assay: qHTS for inhibitors of ROR gamma transcriptional activity). Details: Drosophila S2 Gal4-RORgamma UAS-luciferase reporter, 20 h; activity change, negative = inhibition: at 53.6 µM (top of the series).
Outline: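 Using a luciferase readout, inhibitors were identified by reduced reporter activity in Drosophila cells coexpressing a copper-inducible Gal4–ROR gamma fusion and UAS-driven Photinus luciferase, incubated 20 hr after 700 uM copper sulfate.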
Further: nearly all actives have a fitted effect of over 60% in size.
On the % scale 0 is the no-effect control and ±100 the full control effect; potency means the concentration at half of the fitted maximal effect.

Potency, active:
CCOC(=O)[C@@H]1[C@H]2COc3cc(OC)ccc3[C@@H]2N2C(=O)N(c3cccc(Cl)c3)C(=O)[C@@]12C 11.2 µM, Fc1ccc(/C=C2\CCCC3=C2NC(=S)NC3c2ccc(F)cc2)cc1 (stereo unspecified) 8.91 µM, CC(C)(C)c1ccc(C2CC2C(=O)N/N=C\c2ccc[nH]2)cc1 (stereo unspecified) 10 µM, S=C(NCCc1ccccc1)Nc1ccccn1 1.12 µM, CCC1CCCCN1C(=S)NC(=O)c1cccc([N+](=O)[O-])c1 (stereo unspecified) 0.282 µM, C=C(C)COc1ccc(-c2[nH]ncc2Oc2cccc(OC)c2)c(O)c1 6.31 µM, Cc1ccc(/C=N/n2c(-c3cccc(Cl)c3)n[nH]c2=S)o1 5.01 µM, O=C(Nc1nc(-c2nc3ccccc3s2)cs1)C1CC1 5.62 µM, CCc1ccc(NC(=O)c2nc(S(=O)(=O)Cc3ccccc3)ncc2Cl)cc1 0.282 µM, O=C(Cc1ccccc1)NC(=S)Nc1ccc2oc(-c3ccccc3)nc2c1 7.08 µM, COc1ccccc1-n1cc(-c2ccccc2)[nH]c1=S 3.98 µM, COc1ccccc1Cn1c(C)nc2ccccc21 14.1 µM

Potency, inconclusive:
CC1=CC(=C(c2ccc(N)cc2)c2ccc(N)cc2)C=CC1=N 1.58 µM [activator, partial curve], COc1ccc(NC(=O)c2ccco2)cc1NC(=O)COc1ccccc1[N+](=O)[O-] 0.708 µM [activator, partial curve], COc1ccc(C(=O)Nc2ccc(S(=O)(=O)Nc3cnc4ccccc4n3)cc2)cc1 12.6 µM [activator, partial curve], CCCNC(=O)NC(=O)COC(=O)CC(NC(N)=O)c1ccc(Cl)cc1 (stereo unspecified) 11.2 µM [activator, partial curve], COc1ccc(/C=C/C(=O)c2ccc(C(=O)/C=C/c3ccc(OC)c(OC)c3)cc2)cc1OC 12.6 µM [inhibitor, single point], COc1ccc(S(=O)(=O)N2CCC(C(=O)Nc3ccccc3N3CCCC3)CC2)cc1OC 35.5 µM [activator, single point], Cc1c(Cl)cccc1NC(=O)COC(=O)CCc1nc2ccccc2n1-c1ccccc1 5.62 µM [activator, full curve, poor fit], COc1ccc(OS(=O)(=O)c2ccc(N3C(=O)CCC3=O)cc2)cc1 15.8 µM [activator, partial curve], CC(C)C(=O)Nc1ccc(NC(=O)c2cccc(F)c2)cn1 1.26 µM [inhibitor, single point], CC(=O)c1c(C)[nH]c(C(=O)Nc2cccc(C(F)(F)F)c2)c1C 15.8 µM [activator, single point], Cc1ccc(S(=O)(=O)N2CCCN(C(=O)c3cc4ccccc4[nH]3)CC2)cc1 15.8 µM [activator, partial curve], FC(F)(F)c1cccc(N2CCN(C3CC4CCC3C4)CC2)c1 (stereo unspecified) 35.5 µM [activator, single point], COC(=O)c1c(-c2cccnc2)csc1NC(=O)c1ccc2c(c1)OCO2 0.0398 µM [activator, full curve, poor fit], Clc1nc(-c2cccnc2)nc2scc(-c3ccccc3)c12 7.94 µM [inhibitor, partial curve], O=Cc1cn(-c2ccccc2)nc1-c1ccc2c(c1)OCCO2 22.4 µM [activator, single point], Cc1ccc(C(=O)NNc2nc3ccccc3nc2C(F)(F)F)cc1 11.2 µM [inhibitor, partial curve, poor fit], Cc1c(C(C)C)c(=O)n(-c2ccc(S(=O)(=O)NCc3ccccc3)cc2)n1C 2.82 µM [inhibitor, single point], C=C(C)COc1ccc(-c2[nH]ncc2-c2ccccc2)c(O)c1 15.8 µM [inhibitor, single point], O=S(=O)(c1ccc(F)cc1)c1nc(-c2ccco2)oc1Nc1ccc(F)cc1 14.1 µM [activator, partial curve], NC(=O)CC(NC(=O)c1cccc(Br)c1)c1ccc(N2CCN(c3ccc(F)cc3)CC2)c([N+](=O)[O-])c1 (stereo unspecified) 35.5 µM [activator, single point], O=C(NCc1ccco1)c1cc(-c2cccc(Cl)c2)on1 12.6 µM [activator, partial curve], CN=C1SC(CC(=O)Nc2ccc(F)cc2F)C(=O)N1/N=C/c1ccc(OC(F)F)c(OC)c1 (stereo unspecified) 17.8 µM [inhibitor, partial curve], O=C(NCCC1=CCCCC1)c1ccc(Cl)c(S(=O)(=O)N2CCCCC2)c1 31.6 µM [activator, single point], Cc1nc(NC(=O)c2ccc(F)cc2)sc1C(=O)Nc1ccc2c(c1)CCC2 28.2 µM [inhibitor, single point], CN1CCN(CC(=O)N/N=C\c2c[nH]c3ccccc23)CC1 31.6 µM [inhibitor, single point], CO/N=C/c1ccc(N2CCN(C(=O)c3ccc(C)cc3)CC2)c([N+](=O)[O-])c1 12.6 µM [activator, single point], COc1ccccc1NC(=S)Nc1ccccc1F 35.5 µM [inhibitor, single point], Cc1ccc(C(=O)Nc2ccc3c(c2)nc2n3CCSC2)cc1 7.94 µM [inhibitor, partial curve], Cc1ccc(NC(=S)NNC(=O)c2ccccc2OC(F)F)cc1 0.447 µM [inhibitor, full curve, poor fit], COCc1ccc(C(=O)N2CCCC(C(=O)c3ccc(SC)cc3)C2)o1 (stereo unspecified) 20 µM [activator, single point], CCOc1ccccc1CNC(=O)C1CCCN(c2nnc(C)c3c(C)n(-c4ccccc4)nc23)C1 (stereo unspecified) 12.6 µM [inhibitor, single point], O=C(c1ccc(CS(=O)(=O)c2ccccc2)o1)N1CCN(c2ncccn2)CC1 25.1 µM [inhibitor, single point], c1coc(-c2nnc(-c3ccc4c(c3)OCO4)o2)c1 0.501 µM [activator, partial curve, poor fit], CNC(=O)c1ccsc1NC(=O)c1ccc(S(=O)(=O)N2CCCc3ccccc32)cc1 3.98 µM [activator, partial curve], NS(=O)(=O)c1ccc(NC(=S)N2CCN(Cc3ccc4c(c3)OCO4)CC2)cc1 15.8 µM [activator, single point], O=C(Nc1ccccc1Cl)ON=C1c2ccccc2-c2ccccc21 35.5 µM [inhibitor, single point], COc1ccccc1CNc1nc(C)c(C(C)=O)s1 12.6 µM [activator, partial curve], COc1cc2oc(=O)cc(-c3ccc(-c4ccc(N(C)C)cc4)cc3)c2c(OC)c1OC 22.4 µM [inhibitor, single point], CN(C)c1ccc(CN(C(=O)C2COc3ccccc3O2)C2CCS(=O)(=O)C2)cc1 (stereo unspecified) 28.2 µM [activator, single point]

Activity change, negative = inhibition, inactive:
O=C(O)c1ccc(/C=N\Nc2ccc(S(=O)(=O)N3CCOCC3)cc2[N+](=O)[O-])cc1 4.67%, O=C(O)CCCNS(=O)(=O)c1ccc(Br)s1 -3.51%, CN(CCc1ccccc1)C1CCCN(S(=O)(=O)N(C)C)C1 (stereo unspecified) -3.93%, Cc1nnc(SCC(=O)Nc2sccc2C#N)s1 -2.32%, COCc1ccc(CN2CCCC(CO)(Cc3cccc(Cl)c3)C2)o1 (stereo unspecified) 14%, CCOC(=O)c1cccc(NC(=O)c2ccc3c(c2)OCO3)c1 -19.8%, CCN(CC)S(=O)(=O)c1cc(NC(=O)C(C)N2CCN(c3ccccn3)CC2)ccc1C (stereo unspecified) 21.1%, CC(C)(CO)Nc1ccc([N+](=O)[O-])cc1[N+](=O)[O-] 14.2%, COc1ccc(/C=C/C(=O)Nc2ccc(-n3nncc3-c3ccc(OC)c(OC)c3)cc2)cc1OC 7.64%, O=C(/C=C/c1cccc([N+](=O)[O-])c1)NCc1cccnc1 14.6%, Cc1ccc(-c2nnc(N3CCN(C(=O)CN4CCOCC4)CC3)c3ccccc23)cc1 -12.8%, Cc1cc(-c2nn(-c3ccccc3F)cc2CN2CCN(c3ccncc3)CC2)c(C)s1 -32.2%, Cc1ccc(-c2nc3ccccc3c(=O)n2Cc2ccccc2)cc1 29.6%, COc1ccc(C(=O)Nc2ccccc2C(=O)NCc2cccnc2)cc1 -11.5%, C[C@H](NC(=O)OCc1ccccc1)C(=O)NNC(=O)[C@H](Cc1ccccc1)NC(=O)OC(C)(C)C 1.88%, COC(=O)Nc1sc2c(c1C(=O)NCc1ccco1)CCCC2 -9.94%, O=S(=O)(Nc1nc(-c2ccccc2)cs1)c1cc(Cl)ccc1Cl 3.88%, Cn1c(=O)n(C)c2cc(S(=O)(=O)NCCc3ccccc3)ccc21 28% [at 10 µM], Nc1ccc(-c2nc(-c3ccccc3)nc3ccccc23)cc1 13.3%, COC(=O)c1[nH]c2ccccc2c1NC(=O)C(C)N1CCN(C(=O)c2ccco2)CC1 (stereo unspecified) 14.8%
